In PMC8692146:
These are yes or no findings as the source states them, for the method shown. Binding seen in cells or lysates may run through a third protein. Some entries that bind do so weakly or less than the wild type.

Legend:
[1] = target: T1, PTPN2 (UniProt P17706); assay: co-IP; Huh7 cells, overexpressed HK2 and PTPN2; reciprocal co-IP
T1 sequence: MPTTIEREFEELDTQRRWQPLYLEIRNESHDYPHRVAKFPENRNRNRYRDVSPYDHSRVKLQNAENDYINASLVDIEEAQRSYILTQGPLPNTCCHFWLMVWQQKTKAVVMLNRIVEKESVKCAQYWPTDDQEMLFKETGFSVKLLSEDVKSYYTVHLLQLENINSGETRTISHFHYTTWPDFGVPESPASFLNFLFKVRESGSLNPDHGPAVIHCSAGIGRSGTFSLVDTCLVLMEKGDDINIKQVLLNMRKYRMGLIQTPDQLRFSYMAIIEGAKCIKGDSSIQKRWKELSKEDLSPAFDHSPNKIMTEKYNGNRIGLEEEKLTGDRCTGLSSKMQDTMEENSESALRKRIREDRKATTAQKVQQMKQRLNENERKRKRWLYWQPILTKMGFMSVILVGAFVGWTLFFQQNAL

[2] = target: T2, HK2 (UniProt P52789); assay: as above
T2 sequence: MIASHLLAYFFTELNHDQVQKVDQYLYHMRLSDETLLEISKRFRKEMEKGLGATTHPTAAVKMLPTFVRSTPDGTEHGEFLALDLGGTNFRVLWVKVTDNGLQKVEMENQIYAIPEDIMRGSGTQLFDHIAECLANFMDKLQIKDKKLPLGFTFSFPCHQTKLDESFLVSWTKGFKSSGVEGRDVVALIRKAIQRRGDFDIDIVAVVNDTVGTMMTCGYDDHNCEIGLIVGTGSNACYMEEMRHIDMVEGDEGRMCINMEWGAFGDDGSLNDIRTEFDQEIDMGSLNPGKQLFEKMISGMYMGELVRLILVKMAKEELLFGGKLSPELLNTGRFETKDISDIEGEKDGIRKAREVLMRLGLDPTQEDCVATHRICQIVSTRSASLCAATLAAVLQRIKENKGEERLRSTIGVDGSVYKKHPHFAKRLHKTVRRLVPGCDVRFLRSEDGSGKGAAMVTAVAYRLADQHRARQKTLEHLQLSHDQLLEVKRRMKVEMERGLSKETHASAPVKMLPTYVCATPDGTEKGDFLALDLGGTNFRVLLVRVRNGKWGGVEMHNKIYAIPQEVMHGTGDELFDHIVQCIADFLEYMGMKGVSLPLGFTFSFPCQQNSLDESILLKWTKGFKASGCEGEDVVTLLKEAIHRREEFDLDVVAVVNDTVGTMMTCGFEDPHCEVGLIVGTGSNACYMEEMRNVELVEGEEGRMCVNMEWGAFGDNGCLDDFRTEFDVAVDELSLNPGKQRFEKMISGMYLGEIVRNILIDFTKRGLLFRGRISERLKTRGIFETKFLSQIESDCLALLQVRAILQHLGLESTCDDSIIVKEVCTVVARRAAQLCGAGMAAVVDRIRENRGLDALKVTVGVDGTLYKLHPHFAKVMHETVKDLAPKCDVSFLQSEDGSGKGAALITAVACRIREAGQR

B1: HK2 (enzyme, UniProt P52789 1-917)
chain: T2 sequence
- binding [1]: binds

B2: PTPN2 (enzyme, UniProt P17706 1-415)
chain: T1 sequence
- binding [2]: binds
